# Source: PubChem BioAssay AID448 (National Center for Advancing Translational Sciences (NCATS), 2006)
# The whole screen tested about 65,000 compounds, of which about 45 (0.07%) were called active. The shares of active, inactive and inconclusive entries below differ from those in the screen. Calls follow the shape of the full dose curve. A potency beside an inconclusive call is a rough fit, not a confirmed value.
# System: Schistosoma mansoni peroxiredoxin 2 (Prx2)
# Experiment: Schistosoma Mansoni Peroxiredoxins (Prx2)
# Settings: S. mansoni Prx2 activity coupled to TGR/GSH (TGR is thioredoxin glutathione reductase), NADPH fluorescence loss, qHTS
# Excerpt: NIH Molecular Libraries Screening Centers Network [MLSCN]
# NIH Chemical Genomics Center [NCGC]
# David Williams [Illinois State University]
# Schistosoma mansoni, a causative agent of schistosomiasis, resides in the bloodstream of their host up to 30 years without being eliminated by the host immune attack. One proposed survival mechanism is the production of an antioxidant "firewall" that neutralizes the oxidative assault of the host's immune attack. Schistosoma mansoni peroxiredoxins (Prx) are important parasite antioxidant proteins that play a crucial role in redox balance mechanisms. […] First, the proteins are essential for the parasite survival. […] Third, the protein(s) is amenable for study at the molecular level and can be produced in bacteria in large quantities, in soluble and active form. Inhibition of Prx activity was screened in a coupled-enzyme format with reducing equivalents being transferred from NADPH to […] intermediate via thioredoxin/glutathione reductase (TGR)-catalyzed reaction, then from thioredoxin to hydrogen peroxide via Prx-catalyzed electron transfer. A decrease in the fluorescence intensity of NADPH was used to measure the enzyme activity. Purified S. mansoni TGR and Prx were provided by Professor David L. Williams, Illinois State University.
# NCGC Assay Protocol Summary:
# 100 mM phosphate buffer, pH 7.4, 10 mM EDTA, 0.01% Tween-20.
# 100 uM NADPH/25 nM TGR/700 uM GSH/50 nM Prx2 mixture in columns 1, 2, 5-48. Titration of control potassium antimonyl tartrate (PAT, from 1 mM, then 1:5) pin-transferred to lower half of column 2. Column 1 and upper half of column 2 are neutral (100% activity).
# Three uL of reagents were dispensed to 1536-well Greiner black plates. Compounds and controls (20 nL) were transferred via Kalypsys PinTool. The plates were incubated for 15 min at room temperature, and then a 1 uL aliquot of 400 uM NADPH/700 uM GSH was added, immediately followed by a 1uL aliquot of 2.5 mM H2O2 (to start the reaction). The plate was transferred to ViewLux (Perkin-Elmer) High-throughput CCD imager where kinetic measurements (every 30 sec, for a total of 8 min) of NADPH fluorescence were taken using 365 nm excitation/450 nm emission filter set. During dispense, enzyme-containing reagent bottles were kept submerged into 4 deg C water bath to minimize degradation.
# Keywords: NIH Roadmap, MLSCN, MLI, MLSMR, David Williams, Peroxyredoxin, Schistosoma mansoni, prx2, prx, , qHTS, NCGC
# Potency is read from the fitted curve at half-maximal effect.
row,SMILES,Potency
1,CCCC[C@@H]1C[C@H]1C(NC(=O)c1ccccc1)c1ccc(C(F)(F)F)cc1 (some centres undefined),inactive: > 57 µM
2,Cc1cc(OCC(=O)Nc2ccc(S(=O)(=O)N3CCN(C)CC3)cc2)cc(C)c1Cl,inconclusive: 53.6 µM [single point]
3,COC(=O)c1c(C)[nH]c(C)c1C(=O)c1ccccc1Cc1ccccc1,inconclusive: 50.6 µM [partial curve]
4,Cc1noc(C)c1-c1nccc(NCc2ccccc2)n1,inactive: > 57 µM
5,O=C(O)[C@H]1[C@H](C(=O)O)[C@H](C(=O)O)C[C@@H]1C(=O)O,inactive: > 57 µM
6,CC1=C(C(=O)OCc2ccccc2)C(c2ccoc2)C(C#N)=C(N)O1 (centres undefined),inconclusive: 78.4 µM [single point]
7,Cc1ccc(S(=O)(=O)NC2OC(=O)C(Cl)=C2Cl)cc1 (centres undefined),inconclusive: 48.2 µM [partial curve]
8,C/C(N)=C(/C#N)C(=O)CSc1nnc(Nc2cccc(C)c2)s1,inconclusive: 58 µM [single point]
9,Cn1cc(CNC(=O)Nc2ccc3c(c2)OCO3)cn1,inconclusive: 142 µM [partial curve]
10,CC(C)=C(C#N)c1nc2ccccc2s1,inconclusive: 33.1 µM [partial curve]
11,Cc1[nH]c2ccccc2c1C1(O)C(=O)N(Cc2ccc3c(c2)OCO3)c2ccccc21 (centres undefined),inconclusive: 126 µM [partial curve]
12,Cc1cc(C)cc(N(CC(=O)NC2CC3CCC2C3)S(C)(=O)=O)c1 (centres undefined),inconclusive: 97.2 µM [partial curve]
13,O=C(c1cccs1)c1no[n+]([O-])c1C(=O)c1cccs1,inconclusive: 9.22 µM [partial curve]
14,COC(=O)[C@H]1C[C@@H]1[C@H](NC(=O)OCc1ccccc1)c1ccccc1,inconclusive: 96 µM [partial curve]
15,O=C1OC(Nc2ccc3c(c2)OCO3)c2ccccc21 (centres undefined),inconclusive: 49.7 µM [partial curve]
16,CC(C)CC(=O)N1CCN(C(=O)c2cccc(F)c2)CC1,inconclusive: 436 µM [partial curve]
17,CN1CCN(c2ccnc(-c3ccoc3)n2)CC1,inconclusive: 89.6 µM [single point]
18,COc1ccc(OC)c(S(=O)(=O)N2CCCCC2C(=O)N2CCN(c3ccccn3)CC2)c1 (centres undefined),inconclusive: 66.4 µM [single point]
19,CC(C)NC(=O)N1CC[C@@]2(CCCN(C(=O)c3csnn3)C2)C1,inconclusive: 94.6 µM [single point]
20,C=C(C)COc1ccc(-c2[nH]ncc2Oc2cccc(OC)c2)c(O)c1,inconclusive: 62.7 µM [single point]
21,CC1CCC(NC(=O)c2cc3c(=O)n(C)c4ccccc4c3n2C)CC1 (centres undefined),inactive: > 57 µM
22,CC(C)c1cc(Nc2cccc(O)c2)cc(C(C)C)c1O,inconclusive: 86.5 µM [single point]
23,COc1ccc(-n2c(Cc3cccn3C)nnc2SCC(=O)Nc2nccs2)cc1,inconclusive: 83.9 µM [single point]
24,CC(=O)n1nc(-c2ccco2)nc1SCc1ccccc1,inconclusive: 78.4 µM [single point]
25,COc1ccc2c3c1O[C@@H]1C(=O)CC[C@@]4(O)[C@@H](C2)N(CC2CC2)CC[C@]314,inactive: > 57 µM

row,SMILES,Potency
1,Cc1ccc(-n2nc(C)c3c2OC(N)=C(C#N)C3c2ccoc2)cc1 (centres undefined),inconclusive: 111 µM [partial curve]
2,O=C(O)c1cc[c]([Hg][S]c2ncnc3nc[nH]c23)cc1,active: 0.861 µM
3,Nc1nonc1-c1nc2ccccc2n1CC(=O)N1CCN(c2ccc(F)cc2)CC1,inconclusive: 71.4 µM [single point]
4,c1ccc(OCc2nnc3sc(C4COc5ccccc5O4)nn23)cc1 (centres undefined),inactive: > 57 µM
5,NC(=O)c1c(NC(=O)CSc2nnc(Cc3ccccc3)n2Cc2ccco2)sc2c1CCC2,inconclusive: 54.3 µM [single point]
6,COc1ccccc1-c1cc(NCc2cnc(C)cn2)ncn1,inconclusive: 180 µM [partial curve]
7,CC(C)(C)Nc1nc(SCc2ccccc2)nc(N2CCOCC2)n1,inconclusive: 59.3 µM [single point]
8,COc1ccc(S(=O)(=O)N2CCC(C(=O)N3CCCCC3)CC2)cc1OC,inconclusive: 37.4 µM [partial curve]
9,Cc1c(C(=O)c2no[n+]([O-])c2C(=O)c2cnn(C)c2C)cnn1C,inconclusive: 23.5 µM [partial curve]
10,CCSc1ncc(Cl)c(C(=O)Nc2ccc(S(=O)(=O)Nc3onc(C)c3C)cc2)n1,inconclusive: 81.8 µM [single point]
11,O=C(Cn1ncc2c(=O)oc3ccccc3c21)N1CCN(C(=O)c2ccco2)CC1,inconclusive: 106 µM [partial curve]
12,O=C(Nc1ccc2c(c1)OCO2)C1CCN(S(=O)(=O)c2cccs2)CC1,inactive: > 57 µM
13,Cn1c(/N=C/c2c(O)ccc3ccccc23)nc2ccccc21,inconclusive: 67 µM [partial curve]
14,COc1ccc(N2CCN(C(=O)COc3ccc4ccccc4c3)CC2)cc1,inconclusive: 56.5 µM [single point]
15,C[C@@H](N=C(N)N)C(=O)O,inactive: > 11.4 µM
16,Cc1cc(NC(=O)c2cc(-c3cccs3)nc3ccccc23)no1,inactive: > 57 µM
17,O=C(NCCc1c[nH]c2ccccc12)c1ccc(S(=O)(=O)NCc2ccco2)cc1,inactive: > 57 µM
18,CC(C)=CCSc1nnc([C@@H](NC(=O)OC(C)(C)C)C(C)C)o1,inconclusive: 60 µM [single point]
19,O=C(c1csnn1)N1CCC[C@@]2(CCN(c3cccc(-c4ccccc4)c3)C2)C1,inactive: > 57 µM
20,Cc1noc(C)c1-c1ccc2ncnc(NC3CCNCC3)c2c1,inactive: > 57 µM
21,Cc1cc(C(=O)COc2ccc3ccc(=O)oc3c2)c(C)n1Cc1cccs1,inconclusive: 72.3 µM [partial curve]
22,CC(=O)c1ccc(OCC(O)CN2CCCC(C)C2)cc1 (centres undefined),inactive: > 57 µM
23,CC[C@H](C)[C@@H]1O[C@]2(CC[C@@H]1C)C[C@H]1C[C@H](CC=C(C)[C@@H](O[C@H]3C[C@H](OC)[C@H](O[C@H]4C[C@H](OC)[C@H](O)[C@H](C)O4)[C@H](C)O3)[C@@H](C)C=CC=C3CO[C@@H]4[C@@H](O)C(C)=C[C@H](C(=O)O1)[C@@]34O)O2,inconclusive: 236 µM [partial curve]
24,O[C@H](CN1CC1)[C@@H](O)CN1CC1,inactive: > 57 µM
25,Fc1cc2ncn(Cc3ccccc3)c2cc1F,inconclusive: 52.6 µM [single point]

row,SMILES,Potency
1,CC1=C(C(=O)OC(C)C)C(c2cccnc2)n2ncnc2N1 (centres undefined),inactive: > 57 µM
2,COc1ccc(-c2noc(N(C)CC(=O)Nc3cccc(C(F)(F)F)c3)n2)cc1,inconclusive: 83.2 µM [single point]
3,CCOC(=O)N1CCN(c2c(NCc3ccccc3OC)c(=O)c2=O)CC1,inactive: > 57 µM
4,Cn1cnc([N+](=O)[O-])c1Sc1ncnc2nc[nH]c12,inconclusive: 63.1 µM [partial curve]
5,Cc1ccccc1-c1nc(Nc2ccncc2)c2ccccc2n1,inactive: > 57 µM
6,Cc1ccc(-c2cc(C(F)F)nc(NCc3cccnc3)n2)cc1,inconclusive: 54.4 µM [single point]
7,C=CCn1c(-c2ccoc2)n[nH]c1=S,inconclusive: 3.23 µM [single point]
8,COc1ccc(CNc2ncnc3ccc(-c4cccnc4)cc23)c(OC)c1,inconclusive: 33.2 µM [single point]
9,Cc1ccc(C)c(NS(=O)(=O)c2ccc(OCC(=O)NCc3ccco3)cc2)c1,inconclusive: 99.5 µM [single point]
10,Cc1ccccc1NC(=O)c1nc[nH]c1C(=O)NCc1ccccc1,inconclusive: 66.5 µM [single point]
11,CC1=CCC2C(=O)N(c3nc4ccccc4n3C)C(=O)C2C1 (centres undefined),inconclusive: 64.2 µM [single point]
12,COC(=O)[C@H](NC(=O)c1cc(-c2ccccc2)nc2ccccc12)c1ccccc1,inactive: > 57 µM
13,COC(=O)[C@@]1(Cc2ccc(OC)cc2)[C@H]2c3cc(C(=O)N4CCCC4)n(Cc4ccc(C(F)(F)F)nc4)c3C[C@H]2CN1C(=O)c1ccccc1,inactive: > 57 µM
14,O=C(COC(=O)C1CCN(S(=O)(=O)c2cccs2)CC1)c1ccc2c(c1)OCCO2,inactive: > 57 µM
15,Cc1c(-c2ccc(O)cc2)nn(-c2ccc(O)cc2)c1-c1ccc(OCCN2CCCCC2)cc1,inactive: > 57 µM
16,Clc1ccc(-c2noc(CN3CCCCC3)n2)cc1,inactive: > 57 µM
17,O=C(O)[C@@H](S)[C@H](S)C(=O)O,inconclusive: 42.3 µM [partial curve]
18,CC(=O)c1c(C)[nH]c(C(=O)NCCc2ccccc2)c1C,inconclusive: 76.4 µM [single point]
19,O=C(CSc1nnc(-c2cccs2)n1-c1ccccc1)N1CCOCC1,inconclusive: 64.8 µM [single point]
20,CS(=O)(=O)Nc1cccc(-c2cncnc2Nc2ccc(F)cc2)c1,inactive: > 57 µM
21,COc1ccc(OCc2nnc3n2N=C(c2ccc(Br)cc2)CS3)cc1,inactive: > 57 µM
22,N#CCc1nc2n(n1)Cc1ccccc1-2,inactive: > 57 µM
23,O=C(Cn1ncc2c(=O)oc3ccccc3c21)NCC1CCCO1 (centres undefined),inactive: > 57 µM
24,COc1ccc(-n2nnnc2S(=O)(=O)Cc2ccc(C(=O)O)cc2)cc1,inconclusive: 13.1 µM [partial curve]

# No new results follow: entries from further up.
row,SMILES,Potency
12,O=C(Nc1ccc2c(c1)OCO2)C1CCN(S(=O)(=O)c2cccs2)CC1,inactive: > 57 µM
13,Cn1c(/N=C/c2c(O)ccc3ccccc23)nc2ccccc21,inconclusive: 67 µM [partial curve]
14,COc1ccc(N2CCN(C(=O)COc3ccc4ccccc4c3)CC2)cc1,inconclusive: 56.5 µM [single point]
15,C[C@@H](N=C(N)N)C(=O)O,inactive: > 11.4 µM
16,Cc1cc(NC(=O)c2cc(-c3cccs3)nc3ccccc23)no1,inactive: > 57 µM
17,O=C(NCCc1c[nH]c2ccccc12)c1ccc(S(=O)(=O)NCc2ccco2)cc1,inactive: > 57 µM
18,CC(C)=CCSc1nnc([C@@H](NC(=O)OC(C)(C)C)C(C)C)o1,inconclusive: 60 µM [single point]
19,O=C(c1csnn1)N1CCC[C@@]2(CCN(c3cccc(-c4ccccc4)c3)C2)C1,inactive: > 57 µM
20,Cc1noc(C)c1-c1ccc2ncnc(NC3CCNCC3)c2c1,inactive: > 57 µM
21,Cc1cc(C(=O)COc2ccc3ccc(=O)oc3c2)c(C)n1Cc1cccs1,inconclusive: 72.3 µM [partial curve]
22,CC(=O)c1ccc(OCC(O)CN2CCCC(C)C2)cc1 (centres undefined),inactive: > 57 µM
23,CC[C@H](C)[C@@H]1O[C@]2(CC[C@@H]1C)C[C@H]1C[C@H](CC=C(C)[C@@H](O[C@H]3C[C@H](OC)[C@H](O[C@H]4C[C@H](OC)[C@H](O)[C@H](C)O4)[C@H](C)O3)[C@@H](C)C=CC=C3CO[C@@H]4[C@@H](O)C(C)=C[C@H](C(=O)O1)[C@@]34O)O2,inconclusive: 236 µM [partial curve]
24,O[C@H](CN1CC1)[C@@H](O)CN1CC1,inactive: > 57 µM
25,Fc1cc2ncn(Cc3ccccc3)c2cc1F,inconclusive: 52.6 µM [single point]
1,CC1=C(C(=O)OC(C)C)C(c2cccnc2)n2ncnc2N1 (centres undefined),inactive: > 57 µM
2,COc1ccc(-c2noc(N(C)CC(=O)Nc3cccc(C(F)(F)F)c3)n2)cc1,inconclusive: 83.2 µM [single point]
3,CCOC(=O)N1CCN(c2c(NCc3ccccc3OC)c(=O)c2=O)CC1,inactive: > 57 µM
4,Cn1cnc([N+](=O)[O-])c1Sc1ncnc2nc[nH]c12,inconclusive: 63.1 µM [partial curve]
5,Cc1ccccc1-c1nc(Nc2ccncc2)c2ccccc2n1,inactive: > 57 µM
6,Cc1ccc(-c2cc(C(F)F)nc(NCc3cccnc3)n2)cc1,inconclusive: 54.4 µM [single point]
7,C=CCn1c(-c2ccoc2)n[nH]c1=S,inconclusive: 3.23 µM [single point]
